Source: the supplement of paper PMC6078165

Test system: Hs578T
Test: relative JC-1 red fluorescence (viability) vs pre-drug, coculture with fibroblast (fraction); higher = more viable cancer cells
Protocol: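 JC-1 labelled TNBC cells cocultured 1:1 (1,500 cells each) with CellTrace Violet stained primary or stromal fibroblasts in 384-well plates in FluoroBrite medium, treated with one of 42 anticancer drugs at 0.1, 1, 10 or 100 uM. JC-1 red fluorescence (mitochondrial integrity in cancer cells only) was read by plate reader every 8 h for 72 h. Values are normalised to each well's pre-drug value. The stock of one drug was tenfold lower, so its dose labels may be too high.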

N#Cc1ccc(C(c2ccc(C#N)cc2)n2cncn2)cc1 [Letrozole]
relative JC-1 red fluorescence
Conditions	8 h	16 h	24 h	32 h	40 h	48 h	56 h	64 h	72 h
10 µM	0.8865 ± 0.0066	0.802 ± 0.013	0.755 ± 0.016	0.7158 ± 0.0046	0.6494 ± 0.0022	0.6023 ± 0.0023	0.5769 ± 0.003	0.5349 ± 0.0013	0.526 ± 0.00063
100 µM	0.898 ± 0.021	0.81562 ± 0.00022	0.7688 ± 0.0027	0.737 ± 0.0094	0.689 ± 0.0094	0.649 ± 0.013	0.619 ± 0.013	0.58 ± 0.024	0.564 ± 0.023

relative JC-1 red fluorescence
Conditions	8 h	16 h	24 h	32 h	40 h	48 h	56 h	64 h	72 h
10 µM, coculture fibroblast: C12385	0.8176 ± 0.00013	0.7193 ± 0.0059	0.667 ± 0.029	0.576 ± 0.02	0.507 ± 0.0098	0.468 ± 0.013	0.432 ± 0.014	0.417 ± 0.02	0.408 ± 0.025
10 µM, coculture fibroblast: H6013	0.8506 ± 0.0017	0.808 ± 0.0087	0.75095 ± 0.00011	0.708 ± 0.013	0.662 ± 0.019	0.635 ± 0.028	0.613 ± 0.03	0.595 ± 0.043	0.554 ± 0.044
10 µM, coculture fibroblast: H6019	0.7866 ± 0.0013	0.697 ± 0.017	0.651 ± 0.028	0.57 ± 0.034	0.53 ± 0.046	0.499 ± 0.051	0.47 ± 0.048	0.447 ± 0.053	0.426 ± 0.055
10 µM, coculture fibroblast: H6076	0.9072 ± 0.0024	0.849 ± 0.014	0.792 ± 0.03	0.778 ± 0.033	0.735 ± 0.04	0.722 ± 0.05	0.696 ± 0.045	0.69 ± 0.056	0.691 ± 0.06
10 µM, coculture fibroblast: H6231	0.869 ± 0.034	0.794 ± 0.011	0.787 ± 0.033	0.766 ± 0.058	0.712 ± 0.065	0.694 ± 0.074	0.66 ± 0.083	0.641 ± 0.084	0.625 ± 0.094
10 µM, coculture fibroblast: HADF	0.8671 ± 0.0031	0.811 ± 0.006	0.745 ± 0.016	0.697 ± 0.013	0.642 ± 0.027	0.611 ± 0.026	0.577 ± 0.023	0.554 ± 0.033	0.516 ± 0.039
10 µM, coculture fibroblast: HCFa	0.8279 ± 0.0016	0.7367 ± 0.00038	0.661 ± 0.022	0.592 ± 0.023	0.524 ± 0.025	0.491 ± 0.03	0.463 ± 0.038	0.439 ± 0.049	0.407 ± 0.049
10 µM, coculture fibroblast: HCPF	0.914 ± 0.016	0.842 ± 0.013	0.787 ± 0.021	0.753 ± 0.012	0.688 ± 0.011	0.665 ± 0.0058	0.6364 ± 0.0046	0.6008 ± 0.0042	0.566 ± 0.0096
10 µM, coculture fibroblast: HHSteC	0.816 ± 0.027	0.734 ± 0.042	0.667 ± 0.05	0.61 ± 0.071	0.555 ± 0.082	0.516 ± 0.086	0.491 ± 0.086	0.47 ± 0.086	0.447 ± 0.085
10 µM, coculture fibroblast: HMF	0.917 ± 0.044	0.868 ± 0.041	0.7951 ± 0.0017	0.768 ± 0.014	0.703 ± 0.024	0.673 ± 0.028	0.634 ± 0.029	0.603 ± 0.037	0.58 ± 0.044
10 µM, coculture fibroblast: HPFa	0.878 ± 0.034	0.783 ± 0.056	0.718 ± 0.085	0.663 ± 0.099	0.615 ± 0.1	0.576 ± 0.12	0.532 ± 0.12	0.505 ± 0.14	0.461 ± 0.13
10 µM, coculture fibroblast: HUF	0.832 ± 0.011	0.7226 ± 0.0041	0.704 ± 0.03	0.598 ± 0.045	0.532 ± 0.054	0.496 ± 0.062	0.462 ± 0.056	0.455 ± 0.062	0.444 ± 0.065
10 µM, coculture fibroblast: Hs27A	0.9095 ± 0.0073	0.823 ± 0.027	0.759 ± 0.018	0.7042 ± 0.0032	0.6477 ± 0.0048	0.6307 ± 0.0024	0.5871 ± 0.0053	0.564 ± 0.0031	0.5073 ± 0.0028
10 µM, coculture fibroblast: Hs343T	0.908 ± 0.013	0.823 ± 0.027	0.767 ± 0.025	0.749 ± 0.034	0.69 ± 0.028	0.657 ± 0.032	0.614 ± 0.031	0.586 ± 0.038	0.568 ± 0.04
10 µM, coculture fibroblast: WS1	0.822 ± 0.029	0.728 ± 0.018	0.6834 ± 0.0044	0.5875 ± 0.0038	0.517 ± 0.012	0.489 ± 0.019	0.445 ± 0.02	0.428 ± 0.02	0.41 ± 0.027
100 µM, coculture fibroblast: C12385	0.832 ± 0.0022	0.74708 ± 0.00063	0.66771 ± 7.1e-05	0.597 ± 0.011	0.5332 ± 0.0053	0.49857 ± 0.00031	0.464 ± 0.0088	0.435 ± 0.017	0.422 ± 0.015
100 µM, coculture fibroblast: H6013	0.925 ± 0.035	0.901 ± 0.098	0.846 ± 0.13	0.837 ± 0.18	0.805 ± 0.23	0.802 ± 0.28	0.777 ± 0.3	0.769 ± 0.33	0.738 ± 0.34
100 µM, coculture fibroblast: H6019	0.837 ± 0.027	0.782 ± 0.031	0.7484 ± 0.0056	0.672 ± 0.012	0.633 ± 0.031	0.589 ± 0.034	0.543 ± 0.034	0.508 ± 0.032	0.469 ± 0.03
100 µM, coculture fibroblast: H6076	0.9229 ± 0.0032	0.8635 ± 0.0048	0.832 ± 0.0089	0.816 ± 0.0083	0.783 ± 0.016	0.787 ± 0.028	0.771 ± 0.035	0.759 ± 0.038	0.747 ± 0.031
100 µM, coculture fibroblast: H6231	0.918 ± 0.019	0.86 ± 0.02	0.825 ± 0.011	0.798 ± 0.0086	0.753 ± 0.019	0.723 ± 0.04	0.685 ± 0.043	0.653 ± 0.052	0.635 ± 0.046
100 µM, coculture fibroblast: HADF	0.906 ± 0.0095	0.841 ± 0.013	0.796 ± 0.014	0.76 ± 0.022	0.718 ± 0.042	0.697 ± 0.051	0.66 ± 0.051	0.644 ± 0.041	0.602 ± 0.043
100 µM, coculture fibroblast: HCFa	0.894 ± 0.015	0.8425 ± 0.00098	0.785 ± 0.032	0.732 ± 0.041	0.663 ± 0.044	0.641 ± 0.039	0.605 ± 0.026	0.585 ± 0.018	0.551 ± 0.0085
100 µM, coculture fibroblast: HCPF	0.939 ± 0.025	0.8826 ± 0.0058	0.8417 ± 0.0014	0.804 ± 0.017	0.766 ± 0.017	0.746 ± 0.015	0.731 ± 0.03	0.69 ± 0.025	0.667 ± 0.033
100 µM, coculture fibroblast: HHSteC	0.9248 ± 0.0063	0.86 ± 0.0072	0.784 ± 0.017	0.741 ± 0.018	0.674 ± 0.038	0.643 ± 0.042	0.622 ± 0.052	0.596 ± 0.058	0.562 ± 0.065
100 µM, coculture fibroblast: HMF	0.953 ± 0.034	0.884 ± 0.025	0.8197 ± 0.0033	0.777 ± 0.011	0.723 ± 0.014	0.696 ± 0.0046	0.6565 ± 0.0011	0.632 ± 0.0099	0.608 ± 0.012
100 µM, coculture fibroblast: HPFa	0.94206 ± 0.00014	0.855 ± 0.055	0.759 ± 0.032	0.694 ± 0.02	0.63 ± 0.024	0.579 ± 0.02	0.527 ± 0.026	0.495 ± 0.021	0.446 ± 0.024
100 µM, coculture fibroblast: HUF	0.8737 ± 0.0066	0.805 ± 0.025	0.744 ± 0.031	0.649 ± 0.032	0.591 ± 0.039	0.548 ± 0.034	0.507 ± 0.027	0.481 ± 0.022	0.457 ± 0.021
100 µM, coculture fibroblast: Hs27A	0.877 ± 0.0091	0.8089 ± 0.0016	0.742 ± 0.02	0.692 ± 0.01	0.626 ± 0.0068	0.6 ± 0.0071	0.549 ± 0.0055	0.527 ± 0.0083	0.471 ± 0.0051
100 µM, coculture fibroblast: Hs343T	0.977 ± 0.01	0.901 ± 0.031	0.835 ± 0.023	0.808 ± 0.048	0.748 ± 0.051	0.708 ± 0.051	0.658 ± 0.057	0.62 ± 0.058	0.596 ± 0.06
100 µM, coculture fibroblast: WS1	0.8471 ± 0.0061	0.7777 ± 0.0023	0.721 ± 0.0096	0.647 ± 0.0094	0.583 ± 0.007	0.5573 ± 0.0025	0.5261 ± 0.0021	0.503 ± 0.0054	0.481 ± 0.0068

± gives the standard deviation of the averaged measurements. The reference is the same well before dosing, and untreated signal decays as well.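 Fibroblast labels name human fibroblasts: mostly primary ones from tissues such as uterus (C12385, HUF), lung (H6013), bone (Hs27A), adrenal (HADF) and skin (WS1), plus mammary HMF and breast cancer-associated Hs343T. The cancer cells are basal-like or mesenchymal-like triple-negative breast cancer lines. The paper calls a changed response a hit when it shifts by more than 3x the replicate standard deviation. The tissue of the other fibroblasts is not given here.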
